In PubChem BioAssay AID248 (DTP/NCI, 2004):
The list is a part of this screen's results and no random one: it is rich in T/C values a quarter to a half above the control, in often repeated tests (any T/C) and in doses without a T/C. Other doses and runs of a compound stand elsewhere. T/C: endpoint of the treated group in % of that of the vehicle group. Some doses have a count of surviving animals in place of a T/C: the source files T/C as zero there, which appears to mark a toxic dose or a test without result, not a measured value. Some survivor counts are full or nearly so, which does not show that the dose was tolerated: the source hardly ever lists a survival T/C far under the control, and the zero likely stands for such cases as well. Counts of survivors are from the toxicity check (mostly the fifth day) where no day follows; animals may have died later. Schedule codes are those of the source, taken here to give the interval after Q, in days (D) or hours (H), and the number of doses after X. Some doses were run more than once; their values stand side by side, smallest first. Brackets with × count equal records among those shown. Where survival is the endpoint, this PubChem deposit counts one and a half times the control or more as active, and values a quarter to a half above the control carry no call in these data; other NCI protocols may use other cut-offs. Some T/C values are followed by the survivors on the day toxicity was checked, most often the fifth; without a count, all were alive then.

Test system: L1210 leukemia ip in BDF1 mice, survival T/C
Assay: NCI In Vivo Anticancer Drug Screen. Data for tumor model L1210 Leukemia (intraperitoneal) in B6D2F1 (BDF1) mice
Conditions: T/C endpoint: mean survival time, higher T/C = longer survival
[1] = dose: 100.0 mg/kg/injection, schedule: Q01DX009 (ip), vehicle: saline

`S=P(N1CC1)(N1CC1)N1CC1.[Cl-].[Cl-].[NH2-].[NH2-].[Pt+4]` was tested, and the T/C (dose: 2.7 mg/kg/injection, schedule: Q01DX009 (ip), vehicle: saline) was 130 % of control, the T/C (dose: 4.1 mg/kg/injection, schedule: Q01DX009 (ip), vehicle: saline) was 146 % of control and the T/C (dose: 6.25 mg/kg/injection, schedule: Q01DX009 (ip), vehicle: saline) was 131 [5 of 6 alive] and 144 % of control. The T/C (dose: 9.3 mg/kg/injection, schedule: Q01DX009 (ip), vehicle: saline) was 125 % of control, the survivor count (dose: 12.5 mg/kg/injection, schedule: Q01DX009 (ip), vehicle: saline) was 6 of 6 and the survivor count (dose: 25.0 mg/kg/injection, schedule: Q01DX009 (ip), vehicle: Klucel (hydroxypropylcellulose) (HPC)) was 6 of 6. The survivor count (dose: 25.0 mg/kg/injection, schedule: Q01DX009 (ip), vehicle: saline) was 3 of 6, 4 of 6 (2×), 5 of 6, 6 of 6, the survivor count (dose: 50.0 mg/kg/injection, schedule: Q01DX009 (ip), vehicle: saline) was 4 of 6, 5 of 6, 6 of 6 and the survivor count [1] was 0 of 6 (3×), 1 of 6 (2×), 2 of 6. The survivor count (dose: 200.0 mg/kg/injection, schedule: Q01DX009 (ip), vehicle: saline) was 0 of 6 (3×) and the survivor count (dose: 400.0 mg/kg/injection, schedule: Q01DX009 (ip), vehicle: saline) was 0 of 6 (3×).
In the case of `OCC1CC[N-]CC1.OCC1CC[N-]CC1.[Cl][Pt+2]([Cl])([Cl])[Cl]`, the survivor count [1] is reported as 1 of 6, the survivor count (dose: 200.0 mg/kg/injection, schedule: Q04DX003 (ip), vehicle: saline) is reported as 2 of 6 and the survivor count (dose: 400.0 mg/kg/injection, schedule: Q04DX003 (ip), vehicle: saline) is reported as 0 of 6.
For `CC(C)=CC[P+](C)(c1ccccc1)c1ccccc1`, the survivor count (dose: 25.0 mg/kg/injection, schedule: Q04DX003 (ip), vehicle: saline) was 0 of 3, the survivor count (dose: 50.0 mg/kg/injection, schedule: Q04DX003 (ip), vehicle: saline) was 0 of 3 and the survivor count (dose: 100.0 mg/kg/injection, schedule: Q04DX003 (ip), vehicle: saline) was 0 of 3.
`Clc1ccc2sc3c(c2c1)CCNC3` was tested, and the survivor count (dose: 50.0 mg/kg/injection, schedule: Q04DX003 (ip), vehicle: Klucel (hydroxypropylcellulose) (HPC)) was 4 of 4 and the survivor count (dose: 400.0 mg/kg/injection, schedule: Q04DX003 (ip), vehicle: Klucel (hydroxypropylcellulose) (HPC)) was 1 of 4.
